Experimental data taken from publication PMC5601897, “The catalytic subunit of DNA polymerase δ inhibits γTuRC activity and regulates Golgi-derived microtubules” (Nature Communications, 2017).
These are yes or no findings as the source states them, for the method shown. Binding seen in cells or lysates may run through a third protein. Some entries that bind do so weakly or less than the wild type.

By UniProt entry, the sequences of proteins in these tests, tags left out. Where a name states a change or a piece, a line headed by the entry shows the natural chain unless it says otherwise.
UniProt Q9UGJ1: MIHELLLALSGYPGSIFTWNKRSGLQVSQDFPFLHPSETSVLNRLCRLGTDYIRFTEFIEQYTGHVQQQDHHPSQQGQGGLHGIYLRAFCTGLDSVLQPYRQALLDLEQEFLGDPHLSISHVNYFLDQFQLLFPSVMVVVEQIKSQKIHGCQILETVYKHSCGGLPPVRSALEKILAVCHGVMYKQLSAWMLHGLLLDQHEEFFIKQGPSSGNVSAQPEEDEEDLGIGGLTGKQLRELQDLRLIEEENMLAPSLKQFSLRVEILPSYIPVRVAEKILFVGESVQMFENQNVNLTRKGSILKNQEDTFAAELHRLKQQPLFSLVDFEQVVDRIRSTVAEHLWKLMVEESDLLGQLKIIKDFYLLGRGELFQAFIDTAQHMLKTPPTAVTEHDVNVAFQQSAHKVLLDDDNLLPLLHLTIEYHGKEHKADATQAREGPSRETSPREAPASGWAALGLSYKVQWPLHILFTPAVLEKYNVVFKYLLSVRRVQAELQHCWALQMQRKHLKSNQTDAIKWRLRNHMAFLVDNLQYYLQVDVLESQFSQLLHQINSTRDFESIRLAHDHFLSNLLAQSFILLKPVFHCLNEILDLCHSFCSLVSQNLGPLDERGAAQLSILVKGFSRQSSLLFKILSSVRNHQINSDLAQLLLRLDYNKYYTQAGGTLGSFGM
UniProt Q96RT7: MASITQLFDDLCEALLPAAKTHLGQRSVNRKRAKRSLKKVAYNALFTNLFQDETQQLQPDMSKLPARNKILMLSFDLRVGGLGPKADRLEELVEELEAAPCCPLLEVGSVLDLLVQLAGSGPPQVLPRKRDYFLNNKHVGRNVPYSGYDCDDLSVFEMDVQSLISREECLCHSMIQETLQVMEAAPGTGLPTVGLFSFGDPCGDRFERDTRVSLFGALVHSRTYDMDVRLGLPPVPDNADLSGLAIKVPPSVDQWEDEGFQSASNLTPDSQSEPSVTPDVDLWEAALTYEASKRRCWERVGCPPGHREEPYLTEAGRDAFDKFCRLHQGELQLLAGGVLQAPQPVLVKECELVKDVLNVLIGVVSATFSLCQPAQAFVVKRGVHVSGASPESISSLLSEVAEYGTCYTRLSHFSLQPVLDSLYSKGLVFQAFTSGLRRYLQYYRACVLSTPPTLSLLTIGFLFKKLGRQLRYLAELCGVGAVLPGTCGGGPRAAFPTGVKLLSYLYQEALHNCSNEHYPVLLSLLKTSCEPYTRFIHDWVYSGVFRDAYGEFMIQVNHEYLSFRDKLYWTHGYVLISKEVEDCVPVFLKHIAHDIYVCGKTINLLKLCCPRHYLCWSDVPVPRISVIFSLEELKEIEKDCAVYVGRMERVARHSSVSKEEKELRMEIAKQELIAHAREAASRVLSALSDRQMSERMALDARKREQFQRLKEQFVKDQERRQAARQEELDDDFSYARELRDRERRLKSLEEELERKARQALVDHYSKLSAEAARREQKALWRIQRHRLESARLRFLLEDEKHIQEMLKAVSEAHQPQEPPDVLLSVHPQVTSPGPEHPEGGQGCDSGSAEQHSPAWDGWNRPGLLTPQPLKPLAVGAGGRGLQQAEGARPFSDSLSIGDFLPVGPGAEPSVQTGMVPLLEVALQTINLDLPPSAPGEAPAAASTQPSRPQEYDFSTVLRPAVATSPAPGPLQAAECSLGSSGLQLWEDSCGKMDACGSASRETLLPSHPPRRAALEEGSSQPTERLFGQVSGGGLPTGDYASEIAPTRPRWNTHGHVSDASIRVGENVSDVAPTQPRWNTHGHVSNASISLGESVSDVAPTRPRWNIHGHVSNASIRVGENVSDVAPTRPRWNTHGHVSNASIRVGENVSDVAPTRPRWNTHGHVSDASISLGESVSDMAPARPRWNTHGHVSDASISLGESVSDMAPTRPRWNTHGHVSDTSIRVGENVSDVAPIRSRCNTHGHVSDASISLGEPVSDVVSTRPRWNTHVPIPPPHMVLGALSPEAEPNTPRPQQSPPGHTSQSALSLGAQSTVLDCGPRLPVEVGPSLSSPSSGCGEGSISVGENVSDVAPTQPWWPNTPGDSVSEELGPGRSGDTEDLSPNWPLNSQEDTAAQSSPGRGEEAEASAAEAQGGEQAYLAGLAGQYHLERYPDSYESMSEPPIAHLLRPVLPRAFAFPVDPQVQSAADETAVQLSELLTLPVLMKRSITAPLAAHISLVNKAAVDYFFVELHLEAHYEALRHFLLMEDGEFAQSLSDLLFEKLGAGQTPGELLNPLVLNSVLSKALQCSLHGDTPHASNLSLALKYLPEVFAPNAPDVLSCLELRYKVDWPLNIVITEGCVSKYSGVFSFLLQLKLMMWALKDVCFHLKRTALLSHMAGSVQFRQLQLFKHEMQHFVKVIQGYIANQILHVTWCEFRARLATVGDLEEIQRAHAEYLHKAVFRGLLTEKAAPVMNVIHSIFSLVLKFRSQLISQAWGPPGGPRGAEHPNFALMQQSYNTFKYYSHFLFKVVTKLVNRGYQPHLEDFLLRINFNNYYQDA
UniProt P28340: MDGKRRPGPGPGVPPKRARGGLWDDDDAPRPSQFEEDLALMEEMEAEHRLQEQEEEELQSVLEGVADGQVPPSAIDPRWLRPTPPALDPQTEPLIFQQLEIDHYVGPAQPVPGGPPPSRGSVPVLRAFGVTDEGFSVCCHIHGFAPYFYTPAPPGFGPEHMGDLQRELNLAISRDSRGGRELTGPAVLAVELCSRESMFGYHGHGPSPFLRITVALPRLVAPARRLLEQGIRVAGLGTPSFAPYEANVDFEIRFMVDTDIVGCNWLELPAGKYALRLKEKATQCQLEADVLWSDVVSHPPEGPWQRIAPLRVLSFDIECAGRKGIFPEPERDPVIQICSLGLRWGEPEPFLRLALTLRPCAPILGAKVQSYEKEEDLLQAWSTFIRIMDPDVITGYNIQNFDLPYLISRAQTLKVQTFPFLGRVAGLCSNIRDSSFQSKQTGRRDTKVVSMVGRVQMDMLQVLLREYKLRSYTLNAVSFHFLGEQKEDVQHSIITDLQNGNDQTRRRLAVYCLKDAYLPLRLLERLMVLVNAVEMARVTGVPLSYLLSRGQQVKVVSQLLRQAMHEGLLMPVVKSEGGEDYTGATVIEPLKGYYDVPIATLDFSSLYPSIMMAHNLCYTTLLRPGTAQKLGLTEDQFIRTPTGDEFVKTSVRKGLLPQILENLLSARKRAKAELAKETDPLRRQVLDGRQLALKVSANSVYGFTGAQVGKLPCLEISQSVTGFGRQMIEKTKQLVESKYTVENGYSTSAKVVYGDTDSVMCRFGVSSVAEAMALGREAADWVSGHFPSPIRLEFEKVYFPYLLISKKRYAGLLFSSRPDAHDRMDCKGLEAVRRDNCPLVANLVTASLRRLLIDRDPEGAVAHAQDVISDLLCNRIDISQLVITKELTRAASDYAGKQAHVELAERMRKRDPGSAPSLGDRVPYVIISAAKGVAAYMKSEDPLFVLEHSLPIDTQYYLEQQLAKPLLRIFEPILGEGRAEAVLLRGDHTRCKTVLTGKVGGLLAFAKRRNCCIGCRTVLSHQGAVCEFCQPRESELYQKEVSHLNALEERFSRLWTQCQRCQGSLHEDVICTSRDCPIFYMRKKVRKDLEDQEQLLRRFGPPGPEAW
UniProt Q96CW5: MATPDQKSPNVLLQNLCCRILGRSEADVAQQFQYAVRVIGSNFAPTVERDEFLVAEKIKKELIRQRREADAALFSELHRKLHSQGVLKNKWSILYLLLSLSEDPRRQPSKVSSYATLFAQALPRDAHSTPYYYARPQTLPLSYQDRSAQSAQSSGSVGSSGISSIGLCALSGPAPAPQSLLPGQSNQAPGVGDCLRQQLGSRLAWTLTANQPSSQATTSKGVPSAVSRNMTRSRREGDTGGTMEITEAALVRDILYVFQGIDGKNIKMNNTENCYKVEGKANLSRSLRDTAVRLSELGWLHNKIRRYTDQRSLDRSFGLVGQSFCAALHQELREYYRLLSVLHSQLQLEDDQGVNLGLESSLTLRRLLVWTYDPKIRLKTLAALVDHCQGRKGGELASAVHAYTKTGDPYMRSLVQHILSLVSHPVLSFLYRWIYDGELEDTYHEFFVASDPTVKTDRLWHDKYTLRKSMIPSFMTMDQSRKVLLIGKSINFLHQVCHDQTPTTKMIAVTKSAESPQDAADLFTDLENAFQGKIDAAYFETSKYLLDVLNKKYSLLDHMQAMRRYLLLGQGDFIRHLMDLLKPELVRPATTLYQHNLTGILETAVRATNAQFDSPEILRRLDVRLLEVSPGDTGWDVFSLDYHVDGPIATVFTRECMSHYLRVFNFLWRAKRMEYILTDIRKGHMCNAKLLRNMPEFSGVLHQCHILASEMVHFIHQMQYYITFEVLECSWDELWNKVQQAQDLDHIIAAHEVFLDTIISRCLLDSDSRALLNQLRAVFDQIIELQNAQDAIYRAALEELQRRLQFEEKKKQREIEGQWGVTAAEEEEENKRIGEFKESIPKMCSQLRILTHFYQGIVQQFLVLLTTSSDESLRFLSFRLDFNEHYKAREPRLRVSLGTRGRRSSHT
UniProt Q96RT8: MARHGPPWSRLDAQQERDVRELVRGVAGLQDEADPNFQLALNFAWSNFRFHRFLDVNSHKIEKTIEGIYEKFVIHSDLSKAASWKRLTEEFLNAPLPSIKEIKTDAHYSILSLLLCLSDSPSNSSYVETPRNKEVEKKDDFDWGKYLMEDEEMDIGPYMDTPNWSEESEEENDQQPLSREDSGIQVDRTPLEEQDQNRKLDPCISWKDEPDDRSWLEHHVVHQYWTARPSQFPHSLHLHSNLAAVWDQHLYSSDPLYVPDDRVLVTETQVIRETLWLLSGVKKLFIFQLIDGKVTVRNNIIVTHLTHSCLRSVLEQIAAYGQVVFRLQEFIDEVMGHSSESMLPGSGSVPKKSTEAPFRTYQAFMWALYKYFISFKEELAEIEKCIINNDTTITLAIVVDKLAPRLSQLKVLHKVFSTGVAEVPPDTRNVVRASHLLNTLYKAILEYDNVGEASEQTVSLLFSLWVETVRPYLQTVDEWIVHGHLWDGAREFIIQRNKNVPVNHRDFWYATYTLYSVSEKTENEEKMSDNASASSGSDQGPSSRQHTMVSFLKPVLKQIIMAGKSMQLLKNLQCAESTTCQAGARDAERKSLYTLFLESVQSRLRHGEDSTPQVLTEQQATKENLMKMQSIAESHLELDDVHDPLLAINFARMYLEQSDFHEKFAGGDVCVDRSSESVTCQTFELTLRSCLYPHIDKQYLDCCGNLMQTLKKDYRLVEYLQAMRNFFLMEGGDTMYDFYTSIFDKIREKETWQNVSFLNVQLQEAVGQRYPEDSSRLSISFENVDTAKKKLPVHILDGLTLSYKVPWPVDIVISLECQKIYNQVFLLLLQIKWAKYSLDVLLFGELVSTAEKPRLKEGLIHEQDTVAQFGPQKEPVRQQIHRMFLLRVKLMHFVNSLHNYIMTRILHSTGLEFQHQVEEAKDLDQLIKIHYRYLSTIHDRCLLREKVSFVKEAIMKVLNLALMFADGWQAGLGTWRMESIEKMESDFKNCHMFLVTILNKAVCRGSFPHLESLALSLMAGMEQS
UniProt P49005: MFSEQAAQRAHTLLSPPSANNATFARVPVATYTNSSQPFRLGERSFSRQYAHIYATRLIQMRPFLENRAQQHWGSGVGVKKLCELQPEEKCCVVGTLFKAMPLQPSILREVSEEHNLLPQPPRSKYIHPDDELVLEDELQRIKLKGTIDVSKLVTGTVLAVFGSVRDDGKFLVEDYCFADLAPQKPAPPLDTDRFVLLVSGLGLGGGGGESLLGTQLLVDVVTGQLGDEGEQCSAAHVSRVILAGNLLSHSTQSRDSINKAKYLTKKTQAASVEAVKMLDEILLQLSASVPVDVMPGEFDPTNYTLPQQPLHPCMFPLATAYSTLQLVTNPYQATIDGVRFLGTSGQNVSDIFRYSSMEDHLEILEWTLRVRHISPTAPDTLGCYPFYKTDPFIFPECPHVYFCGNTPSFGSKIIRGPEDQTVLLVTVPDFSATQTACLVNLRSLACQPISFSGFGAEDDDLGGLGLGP

Columns and labels:
[1] = target: GCP4, endogenous (human (endogenous in HEK293T)) (UniProt Q9UGJ1); test: co-IP; endogenous proteins; HEK293T cell extracts (lysis buffer with 0.5% IGEPAL CA-630), anti-GCP6 or anti-GCP4 on Protein A-agarose, 4 °C, 2 h; normal rabbit IgG as control; cells with control or pold1-targeting siRNAs for anti-GCP4; immunoblot
[2] = target: GCP6, endogenous (human (endogenous in HEK293T)) (UniProt Q96RT7); test: as above
[3] = target: FLAG-PolD1 D515V, ectopically expressed (human) (UniProt P28340); test: co-IP; FLAG-tagged PolD1, its mutants or fragments expressed in HEK293T cells; anti-FLAG M2 beads in extracts (0.5% IGEPAL CA-630), 4 °C, 2 h; cells with control or GCP4-specific siRNA in Fig. 1c; immunoblot of endogenous partners
[4] = target: FLAG-PolD1 S605del, ectopically expressed (human) (UniProt P28340); test: as above
[5] = target: FLAG-PolD1 (wild type), ectopically expressed (human) (UniProt P28340); test: as above

For “DNA polymerase δ catalytic subunit (PolD1), endogenous (from UniProt P28340 1-1107)”, the binding [1] was “binds” and the binding [2] was “binds”.

In the case of “GCP3, endogenous (from UniProt Q96CW5 1-907)”, the binding [3] is reported as “binds”, the binding [4] is reported as “binds” and the binding [5] is reported as “binds”.

In the case of “GCP4, endogenous (from UniProt Q9UGJ1 1-667)”, the binding [3] is reported as “binds”, the binding [4] is reported as “binds” and the binding [5] is reported as “binds”.

For “GCP5, endogenous (from UniProt Q96RT8 1-1024)”, the binding [3] was “binds”, the binding [4] was “binds” and the binding [5] was “binds”.

For “GCP6, endogenous (from UniProt Q96RT7 1-1819)”, the binding [1] was “binds”, the binding [3] was “binds” and the binding [4] was “binds”. The binding [5] was “binds”.

“PolD2, endogenous (from UniProt P49005 1-469)” was tested, and the binding [5] was “binds”.
